Experimental data reported in patent US20260240158A1, “MICROBIOCIDAL THIAZOLE DERIVATIVES” (SYNGENTA CROP PROTECTION AG, priority 2019, published 2026).
Some results were stated once for a whole list of compounds, not compound by compound.

What was measured:
[1] = system: Magnaporthe grisea (Pyricularia oryzae); format: in vivo; conditions: 200 ppm; rice leaf disc preventative, 5-7 days after application, vs untreated control
Sclerotinia sclerotiorum = Sclerotinia sclerotiorum / liquid culture (cottony rot); conditions: 20 ppm, growth inhibition photometrically 3-4 days after application, vs untreated control
[2] = system: Monographella nivalis (Microdochium nivale); test: Monographella nivalis (Microdochium nivale) / liquid culture (foot rot cereals); format: cell-based; conditions: "at ppm" (rate not given), growth inhibition photometrically 4-5 days after application, vs untreated control
[3] = system: Botryotinia fuckeliana (Botrytis cinerea); test: Botryotinia fuckeliana (Botrytis cinerea) / liquid culture (gray mould); format: cell-based; conditions: 20 ppm, growth inhibition photometrically 3-4 days after application, vs untreated control
[4] = system: Puccinia recondita f. sp. tritici; test: Puccinia recondita f. sp. tritici / wheat / leaf disc preventative (brown rust); format: in vivo; conditions: 200 ppm, 7-9 days after application, vs untreated control
[5] = system: Mycosphaerella arachidis (Cercospora arachidicola); test: Mycosphaerella arachidis (Cercospora arachidicola) / liquid culture (early leaf spot); format: cell-based; conditions: 20 ppm, growth inhibition photometrically 4-5 days after application, vs untreated control
[6] = system: Glomerella lagenarium (Colletotrichum lagenarium); test: Glomerella lagenarium (Colletotrichum lagenarium) / liquid culture (anthracnose); format: cell-based; conditions: "at ppm" (rate not given), growth inhibition photometrically 3-4 days after application, vs untreated control

Row | SMILES | control of Magnaporthe grisea [1] | also measured
1 | CCCCNC(=O)c1nc(Nc2cnsc2)sc1C [Compound P1, N-butyl-2-(isothiazol-4-ylamino)-5-methyl-thiazole-4-carboxamide] | at least 80% | 
2 | Cc1sc(Nc2cnsc2)nc1C(=O)NCC(C)(C)C [Compound P2, N-(2,2-dimethylpropyl)-2-(isothiazol-4-ylamino)-5-methyl-thiazole-4-carboxamide] | at least 80% | 
3 | Cc1sc(Nc2cnsc2)nc1C(=O)NCCC(C)C [Compound P3, N-isopentyl-2-(isothiazol-4-ylamino)-5-methyl-thiazole-4-carboxamide] | at least 80% | 
4 | Cc1sc(Nc2cnsc2)nc1C(=O)NC1CCC12CCCC2 (stereo not shown) [Compound P5, 2-(isothiazol-4-ylamino)-5-methyl-N-spiro 3.4 octan-3-yl-thiazole-4-carboxamide] | at least 80% | 
5 | Cc1sc(Nc2cnsc2)nc1C(=O)NC1CCC1(C)C (stereo not shown) [Compound P6, N-(2,2-dimethylcyclobutyl)-2-(isothiazol-4-ylamino)-5-methyl-thiazole-4-carboxamide] | at least 80% | control of Sclerotinia sclerotiorum (Sclerotinia sclerotiorum): at least 80%; control of Monographella nivalis [2]: at least 80%; control of Botryotinia fuckeliana [3]: at least 80%; control of Puccinia recondita f. sp. tritici [4]: at least 80%; control of Mycosphaerella arachidis [5]: at least 80%; control of Glomerella lagenarium [6]: at least 80%
6 | CC(=O)N(c1cnsc1)c1nc(C(=O)NC2CCC2(C)C)c(C)s1 (stereo not shown) [Compound P7, 2-[acetyl(isothiazol-4-yl)amino]-N-(2,2-dimethylcyclobutyl)-5-methyl-thiazole-4-carboxamide] | at least 80% | 
7 | COCC(=O)N(c1cnsc1)c1nc(C(=O)NC2CCC23CCCC3)c(C)s1 (stereo not shown) [Compound P8, 2-isothiazol-4-yl-(2-methoxyacetyl) amino-5-methyl-N-spiro 3.4 octan-3-yl-thiazole-4-carboxamide] | at least 80% | 
